Results taken from patent publication US20220268780A1, “METHODS OF PREDICTING ENDOMETRIAL RECEPTIVITY” (HUDSON INSTITUTE OF MEDICAL RESEARCH, priority 2019, published 2022).

System: human endometrial epithelial cells (HEECs)
Test: LC-MS/MS analysis of plasma membrane-enriched proteins of HEECs
Conditions: for Total unique peptides, Samples 1: sample 1, proliferative phase; for Total unique peptides, Samples 2: sample 2, proliferative phase; for Total unique peptides, Samples 3: sample 3, proliferative phase

Molecule | Total unique peptides, Samples 1 | Total unique peptides, Samples 2 | Total unique peptides, Samples 3
CD9 antigen (protein, UniProt P21926 2-228, looked up) CD9 antigen: PVKGGTKCIKYLLFGFNFIFWLAGIAVLAIGLWLRFDSQTKSIFEQETNNNNSSFYTGVYILIGAGALMMLVGFLGCCGAVQESQCMLGLFFGFLLVIFAIEIAAAIWGYSHKDEVIKEVQEFYKDTYNKLKTKDEPQRETLKAIHYALNCCGLAGGVEQFISDICPKKDVLETFTVKSCPDAIKEVFDNKFHIIGAVGIGIAVVMIFGMIFSMILCCAIRRNREMV | 2 | 3 | 1
Epithelial cell adhesion molecule (protein, UniProt P16422 24-314, looked up) Epithelial cell adhesion …: QEECVCENYKLAVNCFVNNNRQCQCTSVGAQNTVICSKLAAKCLVMKAEMNGSKLGRRAKPEGALQNNDGLYDPDCDESGLFKAKQCNGTSMCWCVNTAGVRRTDKDTEITCSERVRTYWIIIELKHKAREKPYDSKSLRTALQKEITTRYQLDPKFITSILYENNVITIDLVQNSSQKTQNDVDIADVAYYFEKDVKGESLFHSKKMDLTVNGEQLDLDPGQTLIYYVDEKAPEFSMQGLKAGVIAVIVVVVIAVVAGIVVLVISRKKRMAKYEKAEIKEMGEMHRELNA | 3 | 3 | 2
Alpha-Parvin (protein, UniProt Q9NVD7 2-372, looked up) Alpha-parvin: ATSPQKSPSVPKSPTPKSPPSRKKDDSFLGKLGGTLARRKKAKEVSELQEEGMNAINLPLSPIPFELDPEDTMLEENEVRTMVDPNSRSDPKLQELMKVLIDWINDVLVGERIIVKDLAEDLYDGQVLQKLFEKLESEKLNVAEVTQSEIAQKQKLQTVLEKINETLKLPPRSIKWNVDSVHAKSLVAILHLLVALSQYFRAPIRLPDHVSIQVVVVQKREGILQSRQIQEEITGNTEALSGRHERDAFDTLFDHAPDKLNVVKKTLITFVNKHLNKLNLEVTELETQFADGVYLVLLMGLLEGYFVPLHSFFLTPDSFEQKVLNVSFAFELMQDGGLEKPKPRPEDIVNCDLKSTLRVLYNLFTKYRNVE | 4 | 6 | 2
Inactive tyrosine-protein kinase 7 (protein, UniProt Q13308 31-1070, looked up) Inactive tyrosine-protein …: AIVFIKQPSSQDALQGRRALLRCEVEAPGPVHVYWLLDGAPVQDTERRFAQGSSLSFAAVDRLQDSGTFQCVARDDVTGEEARSANASFNIKWIEAGPVVLKHPASEAEIQPQTQVTLRCHIDGHPRPTYQWFRDGTPLSDGQSNHTVSSKERNLTLRPAGPEHSGLYSCCAHSAFGQACSSQNFTLSIADESFARVVLAPQDVVVARYEEAMFHCQFSAQPPPSLQWLFEDETPITNRSRPPHLRRATVFANGSLLLTQVRPRNAGIYRCIGQGQRGPPIILEATLHLAEIEDMPLFEPRVFTAGSEERVTCLPPKGLPEPSVWWEHAGVRLPTHGRVYQKGHELVLANIAESDAGVYTCHAANLAGQRRQDVNITVATVPSWLKKPQDSQLEEGKPGYLDCLTQATPKPTVVWYRNQMLISEDSRFEVFKNGTLRINSVEVYDGTWYRCMSSTPAGSIEAQARVQVLEKLKFTPPPQPQQCMEFDKEATVPCSATGREKPTIKWERADGSSLPEWVTDNAGTLHFARVTRDDAGNYTCIASNGPQGQIRAHVQLTVAVFITFKVEPERTTVYQGHTALLQCEAQGDPKPLIQWKGKDRILDPTKLGPRMHIFQNGSLVIHDVAPEDSGRYTCIAGNSCNIKHTEAPLYVVDKPVPEESEGPGSPPPYKMIQTIGLSVGAAVAYIIAVLGLMFYCKKRCKAKRLQKQPEGEEPEMECLNGGPLQNGQPSAEIQEEVALTSLGSGPAATNKRHSTSDKMHFPRSSLQPITTLGKSEFGEVFLAKAQGLEEGVAETLVLVKSLQSKDEQQQLDFRRELEMFGKLNHANVVRLLGLCREAEPHYMVLEYVDLGDLKQFLRISKSKDEKLKSQPLSTKQKVALCTQVALGMEHLSNNRFVHKDLAARNCLVSAQRQVKVSALGLSKDVYNSEYYHFRQAWVPLRWMSPEAILEGDFSTKSDVWAFGVLMWEVFTHGEMPHGGQADDEVLADLQAGKARLPQPEGCPSKLYRLMQRCWALSPKDRPSFSEIASALGDSTVDSKP | 9 | 8 | 2
Ras-related protein Ral-A (protein, UniProt P11233 1-203, looked up) Ras-related protein Ral-A: MAANKPKGQNSLALHKVIMVGSGGVGKSALTLQFMYDEFVEDYEPTKADSYRKKVVLDGEEVQIDILDTAGQEDYAAIRDNYFRSGEGFLCVFSITEMESFAATADFREQILRVKEDENVPFLLVGNKSDLEDKRQVSVEEAKNRAEQWNVNYVETSAKTRANVDKVFFDLMREIRARKMEDSKEKNGKKKRKSLAKRIRERC | 3 | 2 | 2
Catenin beta-1 (protein, UniProt P35222 2-781, looked up) Catenin beta-1: ATQADLMELDMAMEPDRKAAVSHWQQQSYLDSGIHSGATTTAPSLSGKGNPEEEDVDTSQVLYEWEQGFSQSFTQEQVADIDGQYAMTRAQRVRAAMFPETLDEGMQIPSTQFDAAHPTNVQRLAEPSQMLKHAVVNLINYQDDAELATRAIPELTKLLNDEDQVVVNKAAVMVHQLSKKEASRHAIMRSPQMVSAIVRTMQNTNDVETARCTAGTLHNLSHHREGLLAIFKSGGIPALVKMLGSPVDSVLFYAITTLHNLLLHQEGAKMAVRLAGGLQKMVALLNKTNVKFLAITTDCLQILAYGNQESKLIILASGGPQALVNIMRTYTYEKLLWTTSRVLKVLSVCSSNKPAIVEAGGMQALGLHLTDPSQRLVQNCLWTLRNLSDAATKQEGMEGLLGTLVQLLGSDDINVVTCAAGILSNLTCNNYKNKMMVCQVGGIEALVRTVLRAGDREDITEPAICALRHLTSRHQEAEMAQNAVRLHYGLPVVVKLLHPPSHWPLIKATVGLIRNLALCPANHAPLREQGAIPRLVQLLVRAHQDTQRRTSMGGTQQQFVEGVRMEEIVEGCTGALHILARDVHNRIVIRGLNTIPLFVQLLYSPIENIQRVAAGVLCELAQDKEAAEAIEAEGATAPLTELLHSRNEGVATYAAAVLFRMSEDKPQDYKKRLSVELTSSLFRTEPMAWNETADLGLDIGAQGEPLGYRQDDPSYRSFHSGGYGQDALGMDPMMEHEMGGHHPGADYPVDGLPDLGHAQDLMDGLPPGDSNQLAWFDTDL | 8 | 8 | 2
Vinculin (protein, UniProt P18206 1-1134, looked up) Vinculin: MPVFHTRTIESILEPVAQQISHLVIMHEEGEVDGKAIPDLTAPVAAVQAAVSNLVRVGKETVQTTEDQILKRDMPPAFIKVENACTKLVQAAQMLQSDPYSVPARDYLIDGSRGILSGTSDLLLTFDEAEVRKIIRVCKGILEYLTVAEVVETMEDLVTYTKNLGPGMTKMAKMIDERQQELTHQEHRVMLVNSMNTVKELLPVLISAMKIFVTTKNSKNQGIEEALKNRNFTVEKMSAEINEIIRVLQLTSWDEDAWASKDTEAMKRALASIDSKLNQAKGWLRDPSASPGDAGEQAIRQILDEAGKVGELCAGKERREILGTCKMLGQMTDQVADLRARGQGSSPVAMQKAQQVSQGLDVLTAKVENAARKLEAMTNSKQSIAKKIDAAQNWLADPNGGPEGEEQIRGALAEARKIAELCDDPKERDDILRSLGEISALTSKLADLRRQGKGDSPEARALAKQVATALQNLQTKTNRAVANSRPAKAAVHLEGKIEQAQRWIDNPTVDDRGVGQAAIRGLVAEGHRLANVMMGPYRQDLLAKCDRVDQLTAQLADLAARGEGESPQARALASQLQDSLKDLKARMQEAMTQEVSDVFSDTTTPIKLLAVAATAPPDAPNREEVFDERAANFENHSGKLGATAEKAAAVGTANKSTVEGIQASVKTARELTPQVVSAARILLRNPGNQAAYEHFETMKNQWIDNVEKMTGLVDEAIDTKSLLDASEEAIKKDLDKCKVAMANIQPQMLVAGATSIARRANRILLVAKREVENSEDPKFREAVKAASDELSKTISPMVMDAKAVAGNISDPGLQKSFLDSGYRILGAVAKVREAFQPQEPDFPPPPPDLEQLRLTDELAPPKPPLPEGEVPPPRPPPPEEKDEEFPEQKAGEVINQPMMMAARQLHDEARKWSSKPGIPAAEVGIGVVAEADAADAAGFPVPPDMEDDYEPELLLMPSNQPVNQPILAAAQSLHREATKWSSKGNDIIAAAKRMALLMAEMSRLVRGGSGTKRALIQCAKDIAKASDEVTRLAKEVAKQCTDKRIRTNLLQVCERIPTISTQLKILSTVKATMLGRTNISDEESEQATEMLVHNAQNLMQSVKETVREAEAASIKIRTDAGFTLRWVRKTPWYQ | 17 | 26 | 20
Adipocyte plasma membrane-associated protein (protein, UniProt Q9HDC9 2-416, looked up) Adipocyte plasma …: SEADGLRQRRPLRPQVVTDDDGQAPEAKDGSSFSGRVFRVTFLMLAVSLTVPLLGAMMLLESPIDPQPLSFKEPPLLLGVLHPNTKLRQAERLFENQLVGPESIAHIGDVMFTGTADGRVVKLENGEIETIARFGSGPCKTRDDEPVCGRPLGIRAGPNGTLFVADAYKGLFEVNPWKREVKLLLSSETPIEGKNMSFVNDLTVTQDGRKIYFTDSSSKWQRRDYLLLVMEGTDDGRLLEYDTVTREVKVLLDQLRFPNGVQLSPAEDFVLVAETTMARIRRVYVSGLMKGGADLFVENMPGFPDNIRPSSSGGYWVGMSTIRPNPGFSMLDFLSERPWIKRMIFKLFSQETVMKFVPRYSLVLELSDSGAFRRSLHDPDGLVATYISEVHEHDGHLYLGSFRSPFLCRLSLQAV | 1 | 1 | 1
CD59 glycoprotein (protein, UniProt P13987 26-102, looked up) CD59 glycoprotein: LQCYNCPNPTADCKTAVNCSSDFDACLITKAGLQVYNKCWKFEHCNFNDVTTRLRENELTYYCCKKDLCNFNEQLEN | 3 | 2 | 4
